Reference: patent US5023087A, “Efficient method for preparation of prolonged release liposome-based drug delivery system” (Liposome Technology, Inc., priority 1989, dated 1991)
Part of at least one peptide drawing is inferred or uncertain, most often the ends.

System: calcium levels in the sera
Assay: Storage stability of F-sCT and L-sCT by sCT hypocalcemic activity bioassay in fasted rats
Type: in vivo
Settings: for activity lost on incubation: 43-day incubation

SMILES: CC(C)C[C@H](NC(=O)[C@H](CCCCN)NC(=O)CNC(=O)[C@H](CC(C)C)NC(=O)[C@@H](NC(=O)[C@@H]1CSSC[C@H](N)C(=O)N[C@@H](CO)C(=O)N[C@@H](CC(N)=O)C(=O)N[C@@H](CC(C)C)C(=O)N[C@@H](CO)C(=O)N[C@@H]([C@@H](C)O)C(=O)N1)C(C)C)C(=O)N[C@@H](CO)C(=O)N[C@@H](CCC(N)=O)C(=O)N[C@@H](CCC(=O)O)C(=O)N[C@@H](CC(C)C)C(=O)N[C@@H](Cc1c[nH]cn1)C(=O)N[C@@H](CCCCN)C(=O)N[C@@H](CC(C)C)C(=O)N[C@@H](CCC(N)=O)C(=O)N[C@H](C(=O)N[C@@H](Cc1ccc(O)cc1)C(=O)N1CCC[C@H]1C(=O)N[C@@H](CCCNC(=N)N)C(=O)N[C@H](C(=O)N[C@@H](CC(N)=O)C(=O)N[C@H](C(=O)NCC(=O)N[C@@H](CO)C(=O)NCC(=O)N[C@H](C(=O)N1CCC[C@H]1C(N)=O)[C@@H](C)O)[C@@H](C)O)[C@@H](C)O)[C@@H](C)O [F-sCT, Salmon calcitonin]
- biological activity after storage (0.01 mg/ml with bovine serum albumin, 4° C., 28 days): loses substantially its biological activity
- period over which biological activity is preserved (stable) (4° C., 1.0 mg/ml): 128 days
- Activity (%) ([sCT] 0.01 mg/ml, 4 °C, 128 days, % of the sample at beginning of storage): 27%
- Activity (%) ([sCT] 0.01 mg/ml, RT, 43 days): 40%
- Activity (%) ([sCT] 1.0 mg/ml, 4 °C, 128 days): 100%
- Activity (%) ([sCT] 1.0 mg/ml, 37 °C, 7 days): 62%
- Activity (%) ([sCT] 1.0 mg/ml, 37 °C, 7 days, listed as free drug): about 60%
- Activity (%) ([sCT] 1.0 mg/ml, RT, 43 days): 100%
- Activity (%) ([sCT] 1.0 mg/ml, RT, 98 days): 61%
- Activity (%) ([sCT] 1.0 mg/ml, RT, 98 days, listed as free drug): more than 60%
- activity lost on incubation (concentrated (1.0 mg/ml), room temperature): no activity luss
- activity lost on incubation (dilute (0.01 mg/ml), room temperature): about 60%
- period over which biological activity is preserved (stable) (room temperature, large amount (1.0 mg/ml)): 43 days
